A short description of this series: solution-phase peptide synthesis; HOBt/DIC or TBTU/NMM; pentafluorophenol for Arg. Conditions: whole synthesis, HPLC.

*: point of attachment. Fmoc = O=C(OCC1c2ccccc2-c2ccccc21)*

Consider Fmoc-GGGG-OH, for which the “final purity (method not given)” value worked out at 98.54%.
